Assay results reported in publication PMC10886832.
These are yes or no findings as the source states them, for the method shown. In cells and extracts the contact can be indirect. Some results given as binding are weak or reduced against the parent protein; the word gives no strength.

Sequences of proteins named here, by UniProt entry; tags and fusion partners are left off.
UniProt P04150: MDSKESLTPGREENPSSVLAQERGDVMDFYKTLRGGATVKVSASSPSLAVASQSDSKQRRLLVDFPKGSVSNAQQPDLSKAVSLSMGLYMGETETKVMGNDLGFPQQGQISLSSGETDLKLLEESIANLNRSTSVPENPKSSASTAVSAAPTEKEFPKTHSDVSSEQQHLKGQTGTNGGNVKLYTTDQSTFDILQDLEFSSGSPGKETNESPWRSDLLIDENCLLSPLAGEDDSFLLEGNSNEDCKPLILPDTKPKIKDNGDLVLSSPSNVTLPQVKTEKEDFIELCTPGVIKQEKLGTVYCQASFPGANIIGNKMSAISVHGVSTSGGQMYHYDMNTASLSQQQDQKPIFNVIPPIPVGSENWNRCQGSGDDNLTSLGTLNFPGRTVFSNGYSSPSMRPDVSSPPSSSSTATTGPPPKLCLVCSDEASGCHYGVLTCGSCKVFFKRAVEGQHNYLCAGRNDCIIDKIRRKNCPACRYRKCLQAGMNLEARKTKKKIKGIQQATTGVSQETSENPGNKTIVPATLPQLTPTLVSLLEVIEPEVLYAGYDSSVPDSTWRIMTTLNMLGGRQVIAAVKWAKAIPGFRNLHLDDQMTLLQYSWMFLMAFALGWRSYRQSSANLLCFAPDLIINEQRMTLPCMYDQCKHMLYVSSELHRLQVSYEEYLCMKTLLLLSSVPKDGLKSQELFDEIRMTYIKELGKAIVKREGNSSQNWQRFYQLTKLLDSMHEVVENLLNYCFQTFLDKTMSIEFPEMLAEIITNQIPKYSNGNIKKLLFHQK

Target: ten-eleven translocation 2 (UniProt Q6N021)
Experiment: co-IP; in HEK293T cells; unpublished data; bait and prey not stated

- binding: binds
Substance: glucocorticoid receptor (from UniProt P04150 1-777)
